{"source": "patent US20250179125A1", "about": "(University of Washington, priority 2021, published 2025)", "assay": "Fmoc solid-phase peptide synthesis; Rink amide resin; DIC/Oxyma; HBTU/DIEA (manual)", "settings": "whole synthesis", "data": [{"substance": "Ac-RGEmNyFwMNEYYGWIMnCkMGR-NH2", "values": [{"measurement": "final HPLC purity", "result": ">98", "unit": "%"}]}]}
